# The other results are listed elsewhere or left out.
# Amino acid sequences for entries named in this document (tags omitted). A change or cut given only in a name is not applied to a line headed by its entry.
# UniProt O43766: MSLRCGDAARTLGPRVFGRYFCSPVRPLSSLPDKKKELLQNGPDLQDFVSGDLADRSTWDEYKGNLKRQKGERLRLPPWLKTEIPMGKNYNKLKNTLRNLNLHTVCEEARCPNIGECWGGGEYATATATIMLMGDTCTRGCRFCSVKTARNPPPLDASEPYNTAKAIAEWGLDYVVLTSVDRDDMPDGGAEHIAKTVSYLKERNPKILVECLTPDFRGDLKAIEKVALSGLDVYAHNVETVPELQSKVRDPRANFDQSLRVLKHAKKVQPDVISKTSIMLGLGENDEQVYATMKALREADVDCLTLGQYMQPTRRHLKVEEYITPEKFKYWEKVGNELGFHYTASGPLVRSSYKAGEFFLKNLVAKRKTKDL
# UniProt O75427: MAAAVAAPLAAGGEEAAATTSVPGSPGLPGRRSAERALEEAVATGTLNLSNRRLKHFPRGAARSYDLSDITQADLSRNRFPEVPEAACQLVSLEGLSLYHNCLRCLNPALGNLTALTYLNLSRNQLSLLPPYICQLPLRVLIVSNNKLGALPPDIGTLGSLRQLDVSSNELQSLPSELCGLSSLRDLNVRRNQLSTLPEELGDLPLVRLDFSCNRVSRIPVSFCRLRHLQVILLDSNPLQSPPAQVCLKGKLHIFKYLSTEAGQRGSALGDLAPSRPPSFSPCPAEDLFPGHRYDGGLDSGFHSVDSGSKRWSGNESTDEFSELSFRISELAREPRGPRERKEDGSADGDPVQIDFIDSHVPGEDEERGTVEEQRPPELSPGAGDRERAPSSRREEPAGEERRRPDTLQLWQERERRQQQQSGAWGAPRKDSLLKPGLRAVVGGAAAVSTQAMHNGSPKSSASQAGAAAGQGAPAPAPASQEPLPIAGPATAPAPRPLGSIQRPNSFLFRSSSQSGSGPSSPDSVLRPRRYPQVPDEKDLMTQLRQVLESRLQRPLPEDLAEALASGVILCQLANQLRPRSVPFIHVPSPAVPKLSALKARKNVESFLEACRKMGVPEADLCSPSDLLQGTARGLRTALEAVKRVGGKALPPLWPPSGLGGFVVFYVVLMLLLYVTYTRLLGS
# UniProt P62312: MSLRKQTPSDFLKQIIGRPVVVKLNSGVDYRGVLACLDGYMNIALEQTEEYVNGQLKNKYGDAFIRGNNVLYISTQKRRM
# UniProt Q6UWP7: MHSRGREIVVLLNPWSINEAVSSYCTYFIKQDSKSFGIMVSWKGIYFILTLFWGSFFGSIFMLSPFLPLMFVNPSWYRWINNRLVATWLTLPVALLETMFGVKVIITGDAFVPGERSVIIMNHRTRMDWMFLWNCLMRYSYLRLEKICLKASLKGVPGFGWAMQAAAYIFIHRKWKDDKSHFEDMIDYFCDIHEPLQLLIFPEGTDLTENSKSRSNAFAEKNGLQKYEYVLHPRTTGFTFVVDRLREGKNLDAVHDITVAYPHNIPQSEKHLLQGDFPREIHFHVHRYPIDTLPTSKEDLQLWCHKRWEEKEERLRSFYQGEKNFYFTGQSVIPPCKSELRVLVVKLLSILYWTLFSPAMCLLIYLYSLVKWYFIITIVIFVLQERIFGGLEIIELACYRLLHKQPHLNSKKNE
# UniProt P20700: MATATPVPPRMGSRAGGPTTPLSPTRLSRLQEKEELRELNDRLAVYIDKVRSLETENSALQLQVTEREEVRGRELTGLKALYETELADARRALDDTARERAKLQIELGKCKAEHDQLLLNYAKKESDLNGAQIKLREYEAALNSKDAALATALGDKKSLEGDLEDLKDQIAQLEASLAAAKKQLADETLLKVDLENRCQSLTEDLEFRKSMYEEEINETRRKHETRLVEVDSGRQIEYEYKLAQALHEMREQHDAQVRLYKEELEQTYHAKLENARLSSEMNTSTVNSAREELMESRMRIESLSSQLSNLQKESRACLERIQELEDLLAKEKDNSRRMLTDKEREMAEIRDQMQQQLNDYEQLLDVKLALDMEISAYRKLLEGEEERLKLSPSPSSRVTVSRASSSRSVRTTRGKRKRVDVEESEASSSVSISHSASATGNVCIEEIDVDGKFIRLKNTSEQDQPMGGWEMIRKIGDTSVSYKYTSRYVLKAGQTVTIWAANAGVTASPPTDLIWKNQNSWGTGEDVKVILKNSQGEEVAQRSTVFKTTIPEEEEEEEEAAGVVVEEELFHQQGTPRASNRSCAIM
# UniProt Q92539: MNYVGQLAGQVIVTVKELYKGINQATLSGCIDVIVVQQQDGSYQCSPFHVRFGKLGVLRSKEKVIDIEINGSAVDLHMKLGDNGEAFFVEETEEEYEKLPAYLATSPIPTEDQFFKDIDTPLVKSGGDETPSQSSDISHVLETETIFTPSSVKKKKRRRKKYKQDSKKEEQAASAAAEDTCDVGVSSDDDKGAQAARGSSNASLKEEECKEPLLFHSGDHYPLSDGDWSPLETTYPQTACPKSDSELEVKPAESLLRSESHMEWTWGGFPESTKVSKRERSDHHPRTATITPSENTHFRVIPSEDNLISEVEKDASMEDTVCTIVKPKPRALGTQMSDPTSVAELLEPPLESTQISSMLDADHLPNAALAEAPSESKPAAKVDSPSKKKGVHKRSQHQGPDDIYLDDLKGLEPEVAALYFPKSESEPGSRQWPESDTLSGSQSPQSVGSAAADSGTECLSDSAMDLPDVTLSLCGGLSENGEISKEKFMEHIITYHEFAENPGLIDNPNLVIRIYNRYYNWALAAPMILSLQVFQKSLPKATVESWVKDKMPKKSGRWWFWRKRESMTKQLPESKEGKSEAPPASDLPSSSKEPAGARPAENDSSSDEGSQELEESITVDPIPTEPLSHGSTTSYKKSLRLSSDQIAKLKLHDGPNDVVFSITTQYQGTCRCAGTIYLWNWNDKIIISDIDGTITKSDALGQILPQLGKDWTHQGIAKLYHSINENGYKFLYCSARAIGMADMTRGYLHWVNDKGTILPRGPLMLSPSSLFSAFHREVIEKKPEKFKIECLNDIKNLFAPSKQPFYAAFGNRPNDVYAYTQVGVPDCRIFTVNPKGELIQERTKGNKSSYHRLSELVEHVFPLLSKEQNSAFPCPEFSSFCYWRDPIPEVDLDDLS
# UniProt Q9UHB6: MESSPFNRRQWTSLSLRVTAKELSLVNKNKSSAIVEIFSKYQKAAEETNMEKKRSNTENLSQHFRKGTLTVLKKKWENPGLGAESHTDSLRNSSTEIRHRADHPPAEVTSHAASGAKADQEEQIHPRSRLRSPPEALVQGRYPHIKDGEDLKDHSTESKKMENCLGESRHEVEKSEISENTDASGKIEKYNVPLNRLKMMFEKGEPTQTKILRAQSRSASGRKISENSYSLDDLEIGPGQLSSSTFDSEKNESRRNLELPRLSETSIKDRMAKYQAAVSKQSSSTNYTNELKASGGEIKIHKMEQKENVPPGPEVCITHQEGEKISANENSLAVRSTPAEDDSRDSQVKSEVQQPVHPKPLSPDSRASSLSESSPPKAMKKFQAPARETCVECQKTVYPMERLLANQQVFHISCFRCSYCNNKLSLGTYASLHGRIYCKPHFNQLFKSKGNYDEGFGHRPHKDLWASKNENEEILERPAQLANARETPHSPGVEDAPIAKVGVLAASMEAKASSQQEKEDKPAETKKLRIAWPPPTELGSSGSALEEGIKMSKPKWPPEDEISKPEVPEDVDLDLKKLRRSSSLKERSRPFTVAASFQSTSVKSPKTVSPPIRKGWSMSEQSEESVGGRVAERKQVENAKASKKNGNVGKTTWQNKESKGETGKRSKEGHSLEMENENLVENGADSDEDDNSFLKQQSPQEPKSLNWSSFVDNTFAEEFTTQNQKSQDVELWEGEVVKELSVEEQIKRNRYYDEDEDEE
# UniProt Q96PV6, whole entry, looked up: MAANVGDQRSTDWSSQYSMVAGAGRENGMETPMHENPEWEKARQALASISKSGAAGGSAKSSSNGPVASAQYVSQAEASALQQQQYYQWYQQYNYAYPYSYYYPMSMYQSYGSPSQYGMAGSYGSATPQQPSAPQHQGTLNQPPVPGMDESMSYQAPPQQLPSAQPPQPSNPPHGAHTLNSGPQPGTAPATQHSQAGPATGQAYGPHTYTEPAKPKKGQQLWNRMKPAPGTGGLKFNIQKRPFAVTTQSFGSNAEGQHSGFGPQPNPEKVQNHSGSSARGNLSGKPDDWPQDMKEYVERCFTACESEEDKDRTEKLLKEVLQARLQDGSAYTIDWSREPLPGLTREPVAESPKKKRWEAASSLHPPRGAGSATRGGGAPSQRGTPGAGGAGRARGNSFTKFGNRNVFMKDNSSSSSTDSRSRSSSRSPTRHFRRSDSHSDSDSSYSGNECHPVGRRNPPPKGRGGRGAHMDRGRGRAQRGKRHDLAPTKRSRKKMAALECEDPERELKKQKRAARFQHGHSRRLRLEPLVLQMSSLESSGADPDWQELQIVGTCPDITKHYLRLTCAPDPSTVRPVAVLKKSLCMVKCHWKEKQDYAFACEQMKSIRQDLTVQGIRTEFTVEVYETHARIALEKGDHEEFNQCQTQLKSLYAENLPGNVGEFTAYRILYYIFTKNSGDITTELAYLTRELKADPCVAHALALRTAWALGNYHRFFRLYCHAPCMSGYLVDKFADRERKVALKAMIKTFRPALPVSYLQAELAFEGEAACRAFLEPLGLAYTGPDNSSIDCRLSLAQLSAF
# UniProt P13796: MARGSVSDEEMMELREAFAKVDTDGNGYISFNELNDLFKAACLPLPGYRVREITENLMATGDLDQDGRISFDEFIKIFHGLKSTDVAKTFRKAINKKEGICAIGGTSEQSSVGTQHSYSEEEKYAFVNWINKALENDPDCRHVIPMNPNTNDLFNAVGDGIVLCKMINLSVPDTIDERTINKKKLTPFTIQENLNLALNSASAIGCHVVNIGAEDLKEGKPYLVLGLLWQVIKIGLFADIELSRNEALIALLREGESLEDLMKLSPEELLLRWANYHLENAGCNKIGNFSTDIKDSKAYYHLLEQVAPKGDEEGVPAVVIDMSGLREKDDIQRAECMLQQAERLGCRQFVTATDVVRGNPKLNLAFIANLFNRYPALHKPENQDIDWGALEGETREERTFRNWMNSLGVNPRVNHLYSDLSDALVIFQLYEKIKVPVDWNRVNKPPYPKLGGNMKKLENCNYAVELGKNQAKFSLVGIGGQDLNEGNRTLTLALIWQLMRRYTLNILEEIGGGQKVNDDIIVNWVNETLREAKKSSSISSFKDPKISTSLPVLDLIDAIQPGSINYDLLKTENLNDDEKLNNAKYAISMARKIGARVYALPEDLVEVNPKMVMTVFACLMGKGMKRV
# UniProt Q14739: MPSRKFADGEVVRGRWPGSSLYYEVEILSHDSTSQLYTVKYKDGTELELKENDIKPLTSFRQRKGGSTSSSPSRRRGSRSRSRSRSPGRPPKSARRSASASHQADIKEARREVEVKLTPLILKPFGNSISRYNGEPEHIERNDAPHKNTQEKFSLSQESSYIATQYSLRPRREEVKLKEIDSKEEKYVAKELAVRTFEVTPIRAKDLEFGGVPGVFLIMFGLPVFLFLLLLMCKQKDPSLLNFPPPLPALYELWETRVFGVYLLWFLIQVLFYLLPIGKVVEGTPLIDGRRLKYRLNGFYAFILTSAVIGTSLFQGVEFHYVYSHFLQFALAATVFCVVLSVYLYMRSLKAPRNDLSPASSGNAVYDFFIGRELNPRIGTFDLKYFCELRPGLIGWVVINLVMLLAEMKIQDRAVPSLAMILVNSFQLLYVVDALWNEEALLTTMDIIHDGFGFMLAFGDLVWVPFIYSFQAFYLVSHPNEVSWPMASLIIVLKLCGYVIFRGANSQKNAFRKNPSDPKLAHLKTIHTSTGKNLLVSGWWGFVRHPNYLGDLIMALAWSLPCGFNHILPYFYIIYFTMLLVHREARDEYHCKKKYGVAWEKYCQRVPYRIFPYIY
# UniProt Q86X29: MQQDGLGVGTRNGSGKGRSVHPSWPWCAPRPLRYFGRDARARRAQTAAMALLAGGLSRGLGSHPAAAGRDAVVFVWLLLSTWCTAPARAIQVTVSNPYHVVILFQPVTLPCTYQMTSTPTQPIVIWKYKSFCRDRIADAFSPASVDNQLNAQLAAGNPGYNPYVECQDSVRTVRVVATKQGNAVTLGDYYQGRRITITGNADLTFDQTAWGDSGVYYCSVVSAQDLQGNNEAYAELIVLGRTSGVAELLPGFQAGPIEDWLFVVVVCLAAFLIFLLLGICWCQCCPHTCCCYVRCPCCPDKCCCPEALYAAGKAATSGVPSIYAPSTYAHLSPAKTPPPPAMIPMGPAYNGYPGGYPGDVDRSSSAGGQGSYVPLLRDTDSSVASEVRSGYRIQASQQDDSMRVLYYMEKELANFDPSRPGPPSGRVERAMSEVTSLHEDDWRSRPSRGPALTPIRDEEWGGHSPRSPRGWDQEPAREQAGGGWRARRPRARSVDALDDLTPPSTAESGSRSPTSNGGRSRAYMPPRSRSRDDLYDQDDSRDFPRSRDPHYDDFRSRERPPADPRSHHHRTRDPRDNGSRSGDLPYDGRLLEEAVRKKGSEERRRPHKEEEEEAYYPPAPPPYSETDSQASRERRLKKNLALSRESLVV
# Legend:
# Assay in all cases: log2 fold change, soluble protein after heating vs DMSO (PISA); higher = thermal stabilisation; K562 lysate, 10 uM; active = over 0.2 and 3.5 SD of the protein, either way, in both replicates (recomputed)
# [1] = compound: CN1CC[C@H](c2c(O)cc(O)c3c(=O)cc(-c4ccccc4Cl)oc23)[C@H](O)C1 [alvocidib]
# Procedure, shortened: (§1)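 The values are log-two fold changes in thermal stability compared with solvent controls and come from duplicates. They were obtained by TMTpro 16plex LC-MS/MS, with channel sums equalised, on the supernatant after 21,000xg for 90 min. That supernatant came from crude K562 extract at 1 mg/mL protein treated with 10 μM compound for 30 min, heated for 3 min across 48°C-58°C, pooled and brought to 0.5% NP-40 at 4°C.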
# [2] = compound: CN1CCc2c(c3ccccc3n2Cc2ccc(C(=O)NO)cc2)C1 [Tubastatin A]
# Procedure, shortened: as §1
# [3] = compound: CNC(=O)C1=CC=CC=C1NC2=NC(=NC=C2Cl)NC3=C(C=C(C=C3)N4CCOCC4)OC
# Procedure, shortened: as §1
# [4] = compound: CNC(=O)c1ccc(Nc2ncc(C(F)(F)F)c(NCc3nccnc3N(C)S(C)(=O)=O)n2)cc1 [defactinib]
# Procedure, shortened: as §1
# [5] = compound: CNc1nc(-c2ccc3c(N)n[nH]c3c2)cc(N2C[C@@H](C(=O)NC3CCCCC3)CC[C@H]2C)n1
# Procedure, shortened: as §1
# [6] = compound: COC(=O)N[C@@H](C)CNc1nccc(-c2cn(C(C)C)nc2-c2cc(Cl)cc(NS(C)(=O)=O)c2F)n1 [encorafenib]
# Procedure, shortened: as §1
# [7] = compound: COC(=O)[C@H](CCSC)NC(=O)C1=C(C=C(C=C1)NC[C@H](CS)N)C2=CC=CC=C2
# Procedure, shortened: as §1
# [8] = compound: COc1cc(Nc2ncc3c(n2)-c2ccc(Cl)cc2C(c2c(F)cccc2OC)=NC3)ccc1C(=O)O [alisertib]
# Procedure, shortened: as §1
# [9] = compound: COc1cc2nc(-c3cc(F)ccc3O)nc(N[C@@H]3CNC[C@H]3C(C)(C)O)c2cc1OC
# Procedure, shortened: as §1
# [10] = compound: COc1cc2ncnc(Nc3ccc(F)c(Cl)c3)c2cc1OCCCN1CCOCC1 [gefitinib]
# Procedure, shortened: as §1
# [11] = compound: CS(=O)(=O)CCNCc1ccc(-c2ccc3ncnc(Nc4ccc(OCc5cccc(F)c5)c(Cl)c4)c3c2)o1 [lapatinib]
# Procedure, shortened: as §1
# [12] = compound: CS(=O)(=O)N1CCN(Cc2cc3nc(-c4cccc5[nH]ncc45)nc(N4CCOCC4)c3s2)CC1 [pictilisib]
# Procedure, shortened: as §1
# [13] = compound: C[C@@H](Oc1cc(-c2cnn(C3CCNCC3)c2)cnc1N)c1c(Cl)ccc(F)c1Cl [crizotinib]
# Procedure, shortened: as §1
# [14] = compound: C[C@H](C1=CC=C(C=C1)C(=O)NC2=C3C=CNC3=NC=C2)N
# Procedure, shortened: as §1
# [15] = compound: C[C@H](Nc1ncnc2nc[nH]c12)c1cc2cccc(Cl)c2c(=O)n1-c1ccccc1 [duvelisib]
# Procedure, shortened: as §1
# [16] = compound: Cc1cc(Nc2cc(CN3CCOCC3)c3nc(C)c(Cc4ccc(Cl)cc4F)n3n2)n[nH]1 [gandotinib]
# Procedure, shortened: as §1
# [17] = compound: Cc1cc(Nc2cc(N3CCN(C)CC3)nc(Sc3ccc(NC(=O)C4CC4)cc3)n2)n[nH]1 [tozasertib]
# Procedure, shortened: as §1
# [18] = compound: Cc1ccc(-n2nc(C(C)(C)C)cc2NC(=O)Nc2ccc(OCCN3CCOCC3)c3ccccc23)cc1 [doramapimod]
# Procedure, shortened: as §1
# [19] = compound: Cc1ccc(NC(=O)c2ccc(CN3CC[C@H](N(C)C)C3)c(C(F)(F)F)c2)cc1Nc1nccc(-c2cncnc2)n1 [bafetinib]
# Procedure, shortened: as §1
# [20] = compound: Cc1cccc(CC(=O)N2CCc3c2ccc(-c2cn(C)c4ncnc(N)c24)c3F)n1
# Procedure, shortened: as §1
Target,log2 fold change [1],log2 fold change [2],log2 fold change [3],log2 fold change [4],log2 fold change [5],log2 fold change [6],log2 fold change [7],log2 fold change [8],log2 fold change [9],log2 fold change [10],log2 fold change [11],log2 fold change [12],log2 fold change [13],log2 fold change [14],log2 fold change [15],log2 fold change [16],log2 fold change [17],log2 fold change [18],log2 fold change [19],log2 fold change [20]
LMNA (UniProt P02545),inactive: 0.001,inactive: -0.006,inactive: -0.013,inactive: -0.003,inactive: -0.061,inactive: 0,inactive: -0.052,inactive: -0.036,inactive: 0.022,inactive: 0.023,inactive: -0.014,inactive: -0.009,inactive: 0.059,inactive: -0.005,inactive: -0.007,inactive: -0.01,inactive: 0.019,inactive: 0.02,inactive: 0.02,inactive: -0.016
LIAS (UniProt O43766),inactive: -0.024,inactive: 0.039,inactive: 0.024,inactive: -0.013,inactive: 0.089,inactive: -0.008,inactive: -0.032,inactive: -0.001,inactive: -0.016,inactive: -0.007,inactive: -0.019,inactive: -0.01,inactive: 0.06,inactive: -0.044,inactive: 0.065,inactive: 0.038,inactive: -0.003,inactive: -0.047,inactive: -0.004,inactive: 0.017
LLPH (UniProt Q9BRT6),inactive: 0.133,inactive: -0.007,inactive: -0.059,inactive: 0.035,inactive: 0.019,inactive: 0.038,inactive: -0.116,inactive: -0.061,inactive: -0.005,inactive: -0.055,inactive: -0.049,inactive: 0.093,inactive: 0.114,inactive: 0.198,inactive: 0.06,inactive: -0.094,inactive: 0.103,inactive: -0.004,inactive: 0.088,inactive: -0.109
LRCH4 (UniProt O75427),inactive: -0.003,inactive: -0.091,inactive: -0.009,inactive: 0,inactive: -0.01,inactive: -0.055,inactive: 0.253,inactive: -0.163,inactive: 0.036,inactive: -0.035,inactive: -0.055,inactive: 0.05,inactive: -0.039,inactive: 0.042,inactive: -0.052,inactive: -0.095,inactive: 0,inactive: 0.068,inactive: 0.022,inactive: -0.002
LSM6 (UniProt P62312),inactive: 0.045,inactive: 0.003,inactive: -0.008,inactive: -0.009,inactive: 0.005,inactive: -0.02,inactive: -0.018,inactive: 0.03,inactive: 0.003,inactive: -0.014,inactive: -0.015,inactive: -0.002,inactive: 0.065,inactive: 0.029,inactive: 0.019,inactive: -0.021,inactive: -0.018,inactive: -0.054,inactive: 0.031,inactive: -0.092
LCLAT1 (UniProt Q6UWP7),inactive: -0.032,inactive: 0.026,inactive: -0.032,inactive: 0.005,inactive: 0.049,inactive: 0.011,inactive: -0.035,inactive: -0.012,inactive: 0.057,inactive: -0.003,inactive: -0.014,inactive: 0.014,inactive: -0.07,inactive: -0.038,inactive: 0.013,inactive: 0.01,inactive: 0.018,inactive: -0.003,inactive: 0.011,inactive: 0.063
LRRC59 (UniProt Q96AG4),inactive: -0.005,inactive: 0.096,inactive: -0.014,inactive: -0.008,inactive: 0.036,inactive: -0.045,inactive: -0.187,inactive: -0.002,inactive: -0.008,inactive: -0.03,inactive: -0.015,inactive: -0.007,inactive: 0.011,inactive: -0.011,inactive: -0.037,inactive: 0.009,inactive: 0.009,inactive: 0.004,inactive: 0.041,inactive: -0.039
LMNB1 (UniProt P20700),inactive: -0.035,inactive: 0.002,inactive: -0.013,inactive: -0.009,inactive: -0.04,inactive: 0.029,inactive: -0.044,inactive: -0.011,inactive: 0.011,inactive: 0.001,inactive: 0.008,inactive: -0.029,inactive: -0.007,inactive: -0.075,inactive: 0.008,inactive: -0.029,inactive: 0.018,inactive: 0.021,inactive: -0.035,inactive: 0.013
LPIN2 (UniProt Q92539),inactive: 0.005,inactive: -0.043,inactive: 0.056,inactive: 0.045,inactive: 0.006,inactive: 0.038,inactive: 0.021,inactive: 0.001,inactive: 0.017,inactive: 0.047,inactive: 0.013,inactive: 0.007,inactive: -0.027,inactive: 0.003,inactive: 0.005,inactive: -0.056,inactive: -0.04,inactive: -0.008,inactive: -0.008,inactive: 0.04
LIMA1 isoform 4 (UniProt Q9UHB6),inactive: 0.011,inactive: 0.008,inactive: -0.045,inactive: -0.001,inactive: 0.027,inactive: -0.007,inactive: 0.012,inactive: -0.005,inactive: -0.003,inactive: -0.043,inactive: -0.024,inactive: -0.006,inactive: 0.02,inactive: 0.029,inactive: 0.009,inactive: -0.02,inactive: -0.037,inactive: -0.031,inactive: -0.031,inactive: -0.045
LENG8 (UniProt Q96PV6),inactive: -0.058,inactive: 0.025,inactive: -0.089,inactive: -0.14,inactive: 0.205,inactive: 0.034,inactive: 0.011,inactive: -0.052,inactive: 0.028,inactive: 0.02,inactive: 0.103,inactive: -0.057,inactive: -0.027,inactive: -0.07,inactive: 0.157,inactive: -0.053,inactive: -0.054,inactive: 0.022,inactive: -0.089,inactive: 0.084
LCP1 (UniProt P13796),inactive: -0.053,inactive: 0.056,inactive: -0.004,inactive: -0.032,inactive: 0.014,inactive: -0.024,inactive: -0.021,inactive: 0.012,inactive: 0.008,inactive: -0.031,inactive: 0.029,inactive: 0.023,inactive: 0.003,inactive: -0.032,inactive: 0,inactive: 0.03,inactive: 0.009,inactive: 0.01,inactive: 0.046,inactive: -0.007
LBR (UniProt Q14739),inactive: 0.072,inactive: 0.025,inactive: -0.063,inactive: 0.04,inactive: -0.002,inactive: -0.021,inactive: 0.027,inactive: 0.071,inactive: 0.001,inactive: -0.094,inactive: -0.071,inactive: -0.068,inactive: 0.063,inactive: 0.159,inactive: -0.039,active: -0.285,inactive: -0.003,inactive: -0.06,inactive: -0.114,inactive: -0.096
LRCH3 (UniProt Q96II8),inactive: 0,inactive: -0.238,inactive: -0.003,inactive: -0.002,inactive: 0.069,inactive: 0.021,inactive: 0.045,inactive: 0.021,inactive: -0.012,inactive: -0.075,inactive: -0.008,inactive: -0.08,inactive: -0.114,inactive: -0.046,inactive: -0.012,inactive: 0.027,inactive: 0.012,inactive: 0.099,inactive: -0.104,inactive: 0.059
LSR (UniProt Q86X29),inactive: -0.03,inactive: -0.045,inactive: -0.033,inactive: 0.033,inactive: -0.091,inactive: 0.063,inactive: -0.041,inactive: 0.018,inactive: -0.036,inactive: 0.024,inactive: -0.023,inactive: 0.02,inactive: 0.017,inactive: -0.033,inactive: -0.001,inactive: 0.034,inactive: 0.022,inactive: -0.025,inactive: 0.072,inactive: 0.033
LEO1 (UniProt Q8WVC0),inactive: -0.023,inactive: 0.047,inactive: 0.003,inactive: -0.027,inactive: 0.029,inactive: -0.026,inactive: 0.001,inactive: -0.005,inactive: 0.023,inactive: 0.07,inactive: -0.01,inactive: -0.019,inactive: 0.008,inactive: -0.005,inactive: -0.008,inactive: 0.019,inactive: -0.033,inactive: 0.023,inactive: -0.012,inactive: 0.025

# Record cards (already shown). Values in the order: log2 fold change [1]	log2 fold change [2]	log2 fold change [3]	log2 fold change [4]	log2 fold change [5]	log2 fold change [6]	log2 fold change [7]	log2 fold change [8]	log2 fold change [9]	log2 fold change [10]	log2 fold change [11]	log2 fold change [12]	log2 fold change [13]	log2 fold change [14]	log2 fold change [15]	log2 fold change [16]	log2 fold change [17]	log2 fold change [18]	log2 fold change [19]	log2 fold change [20]
# LSR (UniProt Q86X29) is listed with inactive: -0.03	inactive: -0.045	inactive: -0.033	inactive: 0.033	inactive: -0.091	inactive: 0.063	inactive: -0.041	inactive: 0.018	inactive: -0.036	inactive: 0.024	inactive: -0.023	inactive: 0.02	inactive: 0.017	inactive: -0.033	inactive: -0.001	inactive: 0.034	inactive: 0.022	inactive: -0.025	inactive: 0.072	inactive: 0.033
# LMNA (UniProt P02545) is listed with inactive: 0.001	inactive: -0.006	inactive: -0.013	inactive: -0.003	inactive: -0.061	inactive: 0	inactive: -0.052	inactive: -0.036	inactive: 0.022	inactive: 0.023	inactive: -0.014	inactive: -0.009	inactive: 0.059	inactive: -0.005	inactive: -0.007	inactive: -0.01	inactive: 0.019	inactive: 0.02	inactive: 0.02	inactive: -0.016

# Reference: the supplement of paper PMC10849652
